The target in this assay is GFP-Dzip1 (full-length mouse Dzip1) (mouse). The assay can be described thus: co-IP; G0-phase cells (line not stated) expressing GFP-Dzip1 or GFP; IP of GFP-Dzip1, blots for endogenous proteins; IP buffer 0.1% NP-40, 50 mM HEPES pH 7.00, 125 mM NaCl, 4°C.

No constants are given. Whether binding was seen depends on the method and setting. Binding seen in cells or lysates may run through a third protein.

B1: endogenous IFT88 (protein, UniProt Q61371 1-824)
chain: MENVHLAPETDEDDLYSGFNDYNPAYDTEELENDTGFQQAVRTSHGRRPPVTAKIPSTAVSRPIATGYGSKTSLTSSMGRPMTGTIQDGVARPMTAVRAAGFSKAALRGSAFDPLGQSRGPAPPLEAKNEDSPEEKIRQLEKKVNELVEESCIANSCGDLKLALEKAKDAGRKERVLVRQREQVTSPENINLDLTYSVLFNLASQYSANEMYAEALNTYQVIVKNKMFSNAGRLKVNMGNIYLKQRNYSKAIKFYRMALDQIPSVHKEMRIKIMQNIGITFIKTGQYSDAINSFEHIMSMAPSLKAGFNLILSCFAIGDREKMKKAFQKLIAVPLEIDEDDKYISPSDDPHTNLLIEAIKNDHLRQMERERKAMAEKYIMTAAKLIAPVIEASFAVGYNWCVEVVKASQYVELANDLEINKAITYLRQKDFNQAVDTLKMFEKKDSRVKSAAATNLSFLYYLENEFAQASSYADLAVNSDRYNPSALTNKGNTVFANGDYEKAAEFYKEALRNDSSCTEALYNIGLTYKKLNRLDEALDSFLKLHAILRNSAQVLCQIANIYELMEDPNQAIEWLMQLISVVPTDSQALSKLGELYDSEGDKSQAFQYYYESYRYFPSNIEVIEWLGAYYIDTQFCEKAIQYFERASLIQPTQVKWQLMVASCFRRSGNYQKALDTYKEIHRKFPENVECLRFLVRLCTDIGLKEVQEYATKLKRLEKMKEMREQRIKSGRDSSGGSRSKREGSAGSDSGQNNSASSKSERLSAKLRALPGTDEPYESSGNKEIDASYVDPLGPQIERPKTAAKKRIDEDDFADEELGDDLLPE
For the molecule B1, the binding result is reported as “no binding”.

B2: endogenous Rabin8 (protein, UniProt Q68EF0 1-428)
chain: MANDPLEGFHEVNLASPTSPDLLGVCDPGTQEQTTSPSVIYRPHPSTLCAAPLQANALDLSDLPTQPVYSSPRHFNCAEVSNISAHAPDPASSVPSAVASGLTKLTSRKDSCNAEREFLQGATITEASAGNDDIFGLSTDSLSRLRSPSVLEVREKGYERLKEELAKAQREAHKMVREANVKQATAEKQLKEAQGKIDVLQAEVAALKTLVLSSSPTSPTQEPLAAAKTPFKRGHTRNKSTSSAMGGSHQDLSVIQPIVKDCKEADLSLYNEFRSWKDEPTMDRTCPFLDKIYQEDIFPCLTFAKSELASAVLEAVENNTLSIEPVGLQPIRFVKASAVECGGPKKCALTGQSKPCRHRIRLGDSSCCYYISPFCRYRITSVCNFFTYIRYIQQGLVKQQDVDQMFWEVMQLRKEMSLAKLGYFKEEL
On to B2, for which the binding result is listed as “no binding”.
